According to PubChem BioAssay AID504444 (National Center for Advancing Translational Sciences (NCATS), 2011):
In all, about 360,000 compounds went through this assay and about 7,500 (2.1%) were called active. This list was built around the results that the source calls inconclusive (neither active nor inactive); the mix of calls is not that of the screen. Calls come from the whole dose curve; as a rule, active = well fitted inhibition curve with a large enough effect; inconclusive = small, poorly fitted or top-dose-only effect, or effect the other way; inactive = flat fitted curve, though single readings scatter. Where the call is inconclusive, the potency comes from a doubtful curve fit.

Assay: Nrf2 qHTS screen for inhibitors; note: nearly all actives have a fitted effect of over 60% in size
Settings: A549 ARE-Fluc reporter, luciferase luminescence, 18-24 h; series mostly up to 46 µM
Procedure, shortened: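 Quantitative HTS in A549 cells stably bearing an antioxidant response element-firefly luciferase construct. Inhibition of Nrf2-driven transcription was scored by luminescence after 18-24 h of compound exposure at 37 °C.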
Potency is the fitted concentration of half-maximal effect.

Compound | Potency
CCN1CCN(C(=O)c2cc3c(=O)n4ccccc4nc3s2)CC1 | inconclusive: 0.206 µM [activator, full curve, poor fit]
O/N=C/c1ccc2cccc(O)c2n1 | inconclusive: 13 µM [falling, single point]
O=C(Cc1ccccc1)Nc1ccc2c(c1)CCC2 | inconclusive: 3.26 µM [activator, partial curve]
COc1ccccc1CN(Cc1cc2c(C)ccc(C)c2[nH]c1=O)Cc1nnnn1Cc1ccco1 | inconclusive: 29.1 µM [falling, single point]
CSc1ccc(Nc2nn(-c3ccc(OC(F)(F)F)cc3)nc2C(C)=O)cc1 | inconclusive: 14.6 µM [falling, partial curve, poor fit]
Nc1cc2c(cc1Br)[nH]c(=O)c1ccccc12 | inconclusive: 13 µM [falling, partial curve, poor fit]
CCOC(=O)c1sc(S(C)(=O)=O)c2c1CC(C)(C)C/C2=N/O | inactive
O=C(Nc1ncnc2sc3c(c12)CCC3)c1ccco1 | inactive
CCCCCCCCCOC(=O)CNc1nc(C#N)nc(NCC(=O)OCCCCCCCCC)n1 | inactive
COCCNC(=O)C(=O)Nc1ccc2nc3n(c(=O)c2c1)CCCCC3 | inconclusive: 25.9 µM [activator, single point]
CCOC(=O)Cc1csc(CC(N)=O)n1 | inconclusive: 29.1 µM [falling, single point]
CN1CCN(c2ccc(NC(=O)N3CCc4ccccc43)cc2)CC1 | inconclusive: 0.651 µM [activator, full curve, poor fit]
O=[N+]([O-])c1cccc(/C=N/Nc2cc(N3CCOCC3)ncn2)c1 | inconclusive: 1.64 µM [falling, partial curve, poor fit]
COc1ccc(CCNC(=O)C(C)n2nc(C)c3sc4ccccc4c3c2=O)cc1OC (stereo unspecified) | inactive
O=C(Nc1ccccc1N1CCCC1)c1ccc([N+](=O)[O-])cc1Cl | inconclusive: 6.51 µM [activator, single point]
CCOc1ccc(C2C(C(=O)Nc3ccc(C)cc3C)=C(C)Nc3c(C(=O)Nc4ccc(C)cc4)cnn32)cc1OC (stereo unspecified) | inactive
O=C(C1CC1)N(CCc1ccccc1)Cc1nc2ccccc2c(=O)[nH]1 | inconclusive: 29.1 µM [falling, single point]
COc1cc(C(=O)OCC(=O)NC(=O)C2CCCCC2)ccc1OC(F)F | inconclusive: 32.6 µM [falling, single point]
CCOC(=O)c1cc2c(ccn2C)n1CC(=O)N1CCC(Cc2ccccc2)CC1 | inactive
COc1nc(NC2CCCCC2)nc(N2CCCCCC2)n1 | inconclusive: 14.1 µM [falling, single point]
COc1ccc(NC(=O)C/C(C)=N/NC(=O)C(=O)Nc2cccc(Cl)c2C)c(OC)c1 | inconclusive: 13 µM [falling, partial curve, poor fit]
COc1ccc2nc(C)cc(SCC(=O)N/N=C/c3ccc(O)c(O)c3)c2c1 | inactive

Compound | Potency
Cc1ccccc1C(=O)NNC(=S)NC(=O)c1ccccc1 | inconclusive: 25.9 µM [falling, single point]
CC(=O)c1cccc(NC(=O)c2ccc3c(c2)CCN3S(=O)(=O)c2ccccc2)c1 | inconclusive: 23.1 µM [falling, single point]
CN(C(=O)c1ccccn1)c1nnc(-c2ccccn2)s1 | inconclusive: 9.2 µM [activator, partial curve]
CCOC(=O)c1ccc(Nc2nc(=O)c3cccnc3s2)cc1 | inconclusive: 3.66 µM [activator, full curve]
Cc1ccc(NC(=O)Cc2nnc(SCC(=O)c3ccc(Br)cc3)n2C)cc1 | inconclusive: 29.1 µM [falling, single point]
Cc1ccc(-c2nnc(SCc3ccc(C#N)cc3)n2Cc2ccco2)cc1 | inconclusive: 18.4 µM [falling, single point]
CCn1cc(S(=O)(=O)c2ccccc2)c(=O)c2cc(F)c(N3CCCCCC3)cc21 | inconclusive: 23.1 µM [falling, single point]
CCCc1c(CC)c(=N)c2ccccc2n1C | inconclusive: 18.4 µM [falling, single point]
CCOc1ccc(NS(=O)(=O)c2ccc(C(=O)N(CC)CC(=O)NCc3cccs3)cc2)cc1 | inconclusive: 14.6 µM [falling, partial curve, poor fit]
CC1(C)C(=O)Nc2ccccc2N1C(=O)COC(=O)c1ccc(Cl)c(S(=O)(=O)NCc2ccccc2)c1 | inconclusive: 29.1 µM [falling, single point]
Cc1ccc(NS(=O)(=O)c2ccc(C(=O)N3CCCC(C(F)(F)F)C3)cc2)cc1 (stereo unspecified) | inconclusive: 16.4 µM [falling, single point]
Cc1ccccc1C(=O)N1CCN(c2ccc(NC(=O)c3cccnc3)cc2)CC1 | inconclusive: 14.6 µM [falling, partial curve]
C=CCNc1ncnc2c1cnn2-c1ccc(OC)cc1 | inconclusive: 29.1 µM [falling, single point]
Cc1nc(C)c(-c2csc(NCc3ccccc3)n2)s1 | inconclusive: 29.1 µM [falling, single point]
COc1cccc(-n2c(SCC(=O)Nc3ccc4c(c3)CCC4)nc3ccccc3c2=O)c1 | inconclusive: 1.64 µM [falling, full curve, poor fit]
CC(Oc1cccc(Cl)c1)C(=O)Nc1cc(S(=O)(=O)N2CCOCC2)ccc1N1CCCCC1 (stereo unspecified) | inconclusive: 29.1 µM [falling, single point]
O=C(c1ccc2ccccc2c1)C1CCCN(C(=O)c2noc3c2CCCC3)C1 (stereo unspecified) | inactive
CC(C)CCNC(=O)CCCOc1cc(=O)n(C)c2ccccc12 | inconclusive: 16.4 µM [falling, partial curve, poor fit]
Cc1ccccc1-c1nnn(Cc2ccc(F)cc2Cl)n1 | inconclusive: 14.6 µM [activator, single point]
Cn1c(N2CCOCC2)c(/C=N/OC(=O)c2ccc(F)cc2)c2ccccc21 | active: 0.651 µM
CN(C)S(=O)(=O)c1ccc2c(c1)C(=O)c1cc(S(=O)(=O)N(C)C)ccc1CC2 | inactive
O=[N+]([O-])c1ccc(N/N=C/c2sc(N3CCOCC3)nc2-c2ccccc2)c(S(=O)(=O)Nc2ccccc2Cl)c1 | active: 2.59 µM

Compound | Potency
CC(OC(=O)C1CCN(S(=O)(=O)c2ccc(Cl)cc2)CC1)C(=O)N1CCc2ccccc21 (stereo unspecified) | inconclusive: 32.6 µM [falling, single point]
Cn1cccc1C(=O)OCC(=O)Nc1sccc1C#N | inconclusive: 8.2 µM [activator, partial curve]
O=C1c2ccccc2C(Nc2ccccc2)N1Cc1ccc2c(c1)OCO2 (stereo unspecified) | inconclusive: 5.8 µM [activator, partial curve, poor fit]
O=C1C=CC(=C(c2ccc(O)cc2)c2ccc(O)cc2)C=C1 | active: 13 µM
CC(=O)c1cc2c(cc1N(C(=O)c1ccco1)C(C(=O)NC1CCCC1)c1ccccc1F)OCO2 (stereo unspecified) | inactive
CCN(c1cccc(C)c1)C(CNS(=O)(=O)c1ccccc1)c1ccccc1 (stereo unspecified) | inconclusive: 32.6 µM [falling, single point]
Cc1ccc(C)c(CNC(=O)C2CCCCN2S(=O)(=O)c2ccc(F)cc2)c1 (stereo unspecified) | inconclusive: 0.0052 µM [falling, full curve, poor fit]
COc1ccc(-n2c(SCC(C)=O)nc3sc(C)c(C)c3c2=O)cc1 | inconclusive: 23.1 µM [falling, partial curve, poor fit]
COc1cc(Cl)ccc1OCc1cc(C(=O)N2CC[C@@H]3CCCC[C@H]3C2)no1 | inconclusive: 6.51 µM [activator, partial curve]
CCOc1ccc(NC(=O)c2cccc(N3CCCS3(=O)=O)c2)cc1 | inactive
Cc1ccc(Cc2nnc3n(-c4ccccc4)nc(C(=O)c4ccccc4)n3c2=O)cc1 | inconclusive: 23.1 µM [falling, single point]
CC(C)[C@H](NC(=O)N1CC(=O)Nc2ccccc21)C(=O)N[C@@H](C(=O)O)c1ccccc1 | inactive
Cc1ncc([N+](=O)[O-])n1CCOC(=O)Nc1ccc([N+](=O)[O-])cc1 | inactive
O=[N+]([O-])c1ccc2c(OCc3nnc(-c4ccccc4Br)o3)ncnc2c1 | inconclusive: 8.2 µM [falling, partial curve, poor fit]
O=C(CN1CCN(c2nc(-c3ccccc3)cs2)CC1)Nc1ccc2c(c1)OCO2 | inconclusive: 23.1 µM [falling, single point]
Cn1cc(CN2C[C@H]3CC[C@H]2C3)c(-c2ccccc2F)n1 | inconclusive: 9.2 µM [activator, partial curve, poor fit]
C/C(=N\NC(=O)c1cccc(Cl)c1)C1C(=O)c2ccccc2C1=O | inconclusive: 29.1 µM [falling, single point]
COc1ccc(-c2noc(-c3ccccc3OCC(=O)Nc3ccc(C(C)=O)cc3)n2)cc1 | inconclusive: 29.1 µM [falling, single point]
Cc1ccc(C)c(NS(=O)(=O)c2ccc(-c3cnc(C4CC4)o3)cc2)c1 | inactive
CNC(=O)CN(C1CCCCC1)S(=O)(=O)c1ccc(F)cc1 | inactive
CCc1cccc(NC(=O)Cn2c(C(=O)OC)cc3occc32)c1 | inactive
Cc1ccc(Oc2nc(-c3cccnc3)nc3ccccc23)c([N+](=O)[O-])n1 | inconclusive: 29.1 µM [falling, single point]

Part of the list above, as tab-separated lines.
Compound	Potency
O=[N+]([O-])c1ccc2c(OCc3nnc(-c4ccccc4Br)o3)ncnc2c1	inconclusive: 8.2 µM [falling, partial curve, poor fit]
C/C(=N\NC(=O)c1cccc(Cl)c1)C1C(=O)c2ccccc2C1=O	inconclusive: 29.1 µM [falling, single point]
